Measurements from patent EP4772520A1, “NOVEL PRODRUG-TYPE ANTICANCER AGENT TARGETING CANCER-SPECIFIC ENZYME ACTIVITY” (priority 2023, dated 2025).
“And” between values parts separate entries of the source, which are not always exact repeats. Equal values may be shown once. The name of at least one read-out is uncertain.

By UniProt entry, the sequences of proteins in these tests, tags left out. Residues count along the entry.
UniProt P22303, 32-614: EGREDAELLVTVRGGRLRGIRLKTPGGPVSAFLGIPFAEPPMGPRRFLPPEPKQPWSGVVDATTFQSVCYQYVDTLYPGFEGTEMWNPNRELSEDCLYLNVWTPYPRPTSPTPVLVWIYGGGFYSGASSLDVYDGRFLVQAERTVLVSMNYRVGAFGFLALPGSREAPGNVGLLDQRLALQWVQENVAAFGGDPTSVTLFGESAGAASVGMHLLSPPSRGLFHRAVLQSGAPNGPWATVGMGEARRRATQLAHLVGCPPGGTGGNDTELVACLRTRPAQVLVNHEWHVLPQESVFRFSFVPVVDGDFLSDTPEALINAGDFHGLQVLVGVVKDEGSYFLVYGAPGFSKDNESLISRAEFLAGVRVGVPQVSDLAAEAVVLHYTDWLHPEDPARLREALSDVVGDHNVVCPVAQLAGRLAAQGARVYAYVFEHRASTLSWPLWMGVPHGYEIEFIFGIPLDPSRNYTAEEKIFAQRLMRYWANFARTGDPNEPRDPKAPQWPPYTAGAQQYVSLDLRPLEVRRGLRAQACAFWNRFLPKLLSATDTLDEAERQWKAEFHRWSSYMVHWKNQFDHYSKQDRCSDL

What was measured:
human AChE = molecular target: T1, human AChE (Homo sapiens, UniProt P22303); assay: Evaluation of inhibitory activity on acetylcholinesterase (AChE); type: biochemical; settings: AChE inhibition, relative to CPT-11
T1 construct: purchased AnaSpec, Inc
Description: The procedure of the specific inhibition test is shown below. • (1) A test drug at each concentration was added to a 96 well plate, and acetylcholine, an AChE substrate, and an AChE purified enzyme were added according to a protocol, using SensoLyte (registered trademark) 520 Acetylcholine esterase Activity Assay Kit Fluorometric (AnaSpec, Inc.). Neostigmine bromide known as an AChE inhibitor was used as […]. • (2) The fluorescence value at 520 nm was measured, and the IC50 value was calculated.

[1] = prodrug, 10 mg/kg i.v., individual marmosets
Description: A specific test procedure is shown below. • (1) Three marmosets (6 males in total) in each of the SN38-βGal and SN38-βGlcNAc administration groups were sequentially retained using a retention device, and a tail of the administration site was shaved. • (2) The base of the tail from the injection site was avascularized to cause blood vessels to become engorged. Veins running on both left and right sides of the tail were checked, the puncture site was disinfected with alcohol cotton, and then administration was performed with a 27 G injection needle using one of the left and right blood vessels. […]

| Structure (SMILES) | IC50 value larger than CPT-11 (human AChE) | AUC0- (μg・h/mL) [1] |
| --- | --- | --- |
| CCc1c2c(nc3ccc(O[C@@H]4O[C@H](CO)[C@@H](O)[C@H](O)[C@H]4NC(C)=O)cc13)-c1cc3c(c(=O)n1C2)COC(=O)[C@]3(O)CC [SN38-βGlcNAc] | ≥ 2 orders of magnitude | 84.81 μg・h/mL and 77.34 μg・h/mL |
| CCc1c2c(nc3ccc(O[C@@H]4O[C@H](CO)[C@H](O)[C@H](O)[C@H]4O)cc13)-c1cc3c(c(=O)n1C2)COC(=O)[C@]3(O)CC [SN38-βGal] | ≥ 2 orders of magnitude | 48.85 μg・h/mL and 76.08 μg・h/mL and 34.87 μg・h/mL |
